Reference: paper PMC13213242, “A novel ψ–χ fusion protein for unravelling the contributions of χ to DNA replication and repair” (Nucleic Acids Research, 2026)
Where a chain is given by its changes, count along the chain named. These are yes or no findings as the source states them, for the method shown. Some results given as binding are weak or reduced against the parent protein; the word gives no strength. For some of these results: Sequences can lack the tags named with a protein.

By UniProt entry, the sequences of proteins in these tests, tags left out.
UniProt P0AGE0: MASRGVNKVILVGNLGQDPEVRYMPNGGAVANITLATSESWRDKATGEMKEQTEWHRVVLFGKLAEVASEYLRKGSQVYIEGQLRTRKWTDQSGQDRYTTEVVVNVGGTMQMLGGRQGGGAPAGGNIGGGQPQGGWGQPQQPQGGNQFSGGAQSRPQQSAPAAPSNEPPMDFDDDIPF
UniProt P28905: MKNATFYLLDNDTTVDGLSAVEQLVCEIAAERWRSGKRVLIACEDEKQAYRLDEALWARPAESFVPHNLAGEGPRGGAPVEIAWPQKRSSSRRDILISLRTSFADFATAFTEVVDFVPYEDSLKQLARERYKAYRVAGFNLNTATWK

B1: YoaA_T620A, two-hybrid fusion (enzyme, UniProt P76257 1-636)
chain: MTDDFAPDGQLAKAIPGFKPREPQRQMAVAVTQAIEKGQPLVVEAGTGTGKTYAYLAPALRAKKKVIISTGSKALQDQLYSRDLPTVSKALKYTGNVALLKGRSNYLCLERLEQQALAGGDLPVQILSDVILLRSWSNQTVDGDISTCVSVAEDSQAWPLVTSTNDNCLGSDCPMYKDCFVVKARKKAMDADVVVVNHHLFLADMVVKESGFGELIPEADVMIFDEAHQLPDIASQYFGQSLSSRQLLDLAKDITIAYRTELKDTQQLQKCADRLAQSAQDFRLQLGEPGYRGNLRELLANPQIQRAFLLLDDTLELCYDVAKLSLGRSALLDAAFERATLYRTRLKRLKEINQPGYSYWYECTSRHFTLALTPLSVADKFKELMAQKPGSWIFTSATLSVNDDLHHFTSRLGIEQAESLLLPSPFDYSRQALLCVLRNLPQTNQPGSARQLAAMLRPIIEANNGRCFMLCTSHAMMRDLAEQFRATMTLPVLLQGETSKGQLLQQFVSAGNALLVATSSFWEGVDVRGDTLSLVIIDKLPFTSPDDPLLKARMEDCRLRGGDPFDEVQLPDAVITLKQGVGRLIRDADDRGVLVICDNRLVMRPYGATFLASLPPAPRARDIARAVRFLAIPSSR

Assays:
Assay in all cases: two-hybrid; Matchmaker GAL4 Two-Hybrid System 3; GAL4 BD and AD fusions in both orientations; growth on −HIS plates (HIS3 reporter), 30°C, 2–3 days
[1] = target: T1, YoaA (WT), two-hybrid fusion (E. coli) (UniProt P76257)
T1 sequence: B1 chain with A620T

[2] = target: T2, YoaA_T620A, two-hybrid fusion (E. coli) (UniProt P76257)
T2 sequence: B1 chain

[3] = target: single-stranded DNA-binding protein (SSB), two-hybrid fusion (E. coli) (UniProt P0AGE0)
[4] = target: χ (HolC), two-hybrid fusion (E. coli) (UniProt P28905)

Row | Molecule | binding [1] | binding [2] | binding [3] | binding [4]
1 | χ (HolC), two-hybrid fusion (from UniProt P28905 1-147) | binds | no binding | binds | 
2 | B1 |  |  |  | no binding
